Results on 1 molecule are retold here after patent US9938331.

The chains behind the UniProt entries cited, without tags or fusion partners. Where a name states a change or a piece, a line headed by the entry shows the natural chain unless it says otherwise. A line that says so, or that is headed by a name, gives the form on record, which may keep a tag or linker.
human VEGF (P15692, form named): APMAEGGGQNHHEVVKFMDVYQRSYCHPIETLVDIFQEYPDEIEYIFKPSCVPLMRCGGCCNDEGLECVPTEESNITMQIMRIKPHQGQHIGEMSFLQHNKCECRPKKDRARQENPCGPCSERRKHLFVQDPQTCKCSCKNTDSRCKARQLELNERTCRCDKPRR

These are yes or no findings as the source states them, for the method shown. Some binding calls cover weakened binding; strength is not graded here.

The target of experiment [1] is human VEGF (human) (UniProt P15692). As to the kind of experiment: starting sequence of the 2SS buildup library.
Experiment [2] shares this target. As to the kind of experiment: phage panning of cysteine-constrained peptide libraries.

Take FTCTNHWCPS […]: the binding entry with human VEGF (human) [1] and with human VEGF (human) [2] was “binds” each time.
